Measured values published in patent US20250127814A1.
Substitutions are numbered along the chain they refer to. These are yes or no findings as the source states them, for the method shown. Some results given as binding are weak or reduced against the parent protein; the word gives no strength. Values belong to the binder of their own block, whether it stands above or below them.

The chains behind the UniProt entries cited, without tags or fusion partners. Residues count along the entry.
UniProt P02769, residues 25-607: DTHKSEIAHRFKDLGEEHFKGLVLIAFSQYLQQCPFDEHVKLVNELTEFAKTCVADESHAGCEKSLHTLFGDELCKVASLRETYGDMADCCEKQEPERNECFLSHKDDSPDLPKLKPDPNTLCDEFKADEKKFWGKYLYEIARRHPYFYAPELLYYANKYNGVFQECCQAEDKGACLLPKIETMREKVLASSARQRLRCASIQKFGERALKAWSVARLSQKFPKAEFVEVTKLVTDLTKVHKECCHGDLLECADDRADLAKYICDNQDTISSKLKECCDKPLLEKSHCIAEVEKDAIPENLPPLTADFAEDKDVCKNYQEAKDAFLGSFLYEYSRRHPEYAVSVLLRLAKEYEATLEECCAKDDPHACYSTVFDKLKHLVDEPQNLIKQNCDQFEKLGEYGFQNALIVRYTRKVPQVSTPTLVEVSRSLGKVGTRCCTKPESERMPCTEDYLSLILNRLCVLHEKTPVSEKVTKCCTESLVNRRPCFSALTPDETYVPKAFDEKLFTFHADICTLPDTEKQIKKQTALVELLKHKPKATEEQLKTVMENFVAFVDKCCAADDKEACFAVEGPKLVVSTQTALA

Legend:
[1] = target: BSA (bovine) (UniProt P02769); assay: single-point Fab ELISA, BSA control wells, protein L-HRP [panel B]
[2] = target: BSA (bovine) (UniProt P02769); assay: single-point Fab ELISA, BSA control wells, protein L-HRP [panel A]
[3] = target: T1, cell surface borealin on murine tumor cell lines (CT26, MC38, 4T1) (mouse) (UniProt Q8BHX3); assay: flow cytometry, CT26 murine colorectal carcinoma cells, 200 nM Fab, anti-human F(ab')2-A647 [left]
T1 sequence (single chain, looked up): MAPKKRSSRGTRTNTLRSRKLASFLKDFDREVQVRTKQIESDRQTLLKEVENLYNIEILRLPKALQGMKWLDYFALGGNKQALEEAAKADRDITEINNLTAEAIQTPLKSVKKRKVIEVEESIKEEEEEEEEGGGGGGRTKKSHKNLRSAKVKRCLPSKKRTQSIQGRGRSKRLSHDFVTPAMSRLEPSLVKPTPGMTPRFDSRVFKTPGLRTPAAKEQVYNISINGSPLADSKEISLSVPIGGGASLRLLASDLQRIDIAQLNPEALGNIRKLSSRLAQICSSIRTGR

[4] = substrate: T2, INC-N; assay: Western blot of recombinant CPC domains, Fab as primary reagent, anti-human F(ab')2 IgG-HRP [panel A]
T2 sequence: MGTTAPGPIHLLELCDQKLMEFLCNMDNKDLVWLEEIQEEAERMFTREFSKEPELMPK

[5] = target: T1, cell surface borealin on murine tumor cell lines (CT26, MC38, 4T1) (mouse); assay: flow cytometry, MC38 murine colorectal carcinoma cells, 200 nM Fab, anti-human F(ab')2-A647 [middle]
[6] = target: T1, cell surface borealin on murine tumor cell lines (CT26, MC38, 4T1) (mouse); assay: flow cytometry, 4T1 murine mammary carcinoma cells, 200 nM Fab, anti-human F(ab')2-A647 [right]

B1: BOR-C-56 (Fab, V domains shown)
VH: EVQLVESGGGLVQPGGSLRLSCAASGFNISSSSIHWVRQAPGKGLEWVAYISSYSGSTYYADSVKGRFTISADTSKNTAYLQMNSLRAEDTAVYYCARYYHSPLWYYSYSGMDYWGQGTLVTVSS
VL: DIQMTQSPSSLSASVGDRVTITCRASQSVSSAVAWYQQKPGKAPKLLIYSASSLYSGVPSRFSGSRSGTDFTLTISSLQPEDFATYYCQQDYSWSPITFGQGTKVEIKR
binding [1]: no binding (tested: 200 nM)

B3: BOR-C-57 (Fab, V domains shown)
VH: EVQLVESGGGLVQPGGSLRLSCAASGFNISSSSIHWVRQAPGKGLEWVASISSYYSYTYYADSVKGRFTISADTSKNTAYLQMNSLRAEDTAVYYCARGAWYGYLGYYAYYYYALDYWGQGTLVTVSS
VL: B1 VL with D91M, Y92G, S93Y, W94E, S95T, P96L
binding [1]: no binding (tested: 200 nM)

B4: BOR-N-48 (Fab, V domains shown)
VH: EVQLVESGGGLVQPGGSLRLSCAASGFNFSYSSIHWVRQAPGKGLEWVASIYPYSGSTYYADSVKGRFTISADTSKNTAYLQMNSLRAEDTAVYYCARKQVSGWWWYYGFDYWGQGTLVTVSS
VL: DIQMTQSPSSLSASVGDRVTITCRASQSVSSAVAWYQQKPGKAPKLLIYSASSLYSGVPSRFSGSRSGTDFTLTISSLQPEDFATYYCQQSYWWPITFGQGTKVEIKR
binding [3]: binds
binding [2]: no binding (tested: 200 nM)
binding [4]: no binding (tested: 5-10 ug/ml (the text prints 'lg/ml'))
binding [5]: binds
binding [6]: binds

B7: BOR-N-49 (Fab, V domains shown)
VH: EVQLVESGGGLVQPGGSLRLSCAASGFNVSSYSIHWVRQAPGKGLEWVASIYSSSSSTYYADSVKGRFTISADTSKNTAYLQMNSLRAEDTAVYYCARRYYHYRYPLFWGWYGMDYWGQGTLVTVSS
VL: B4 VL with Y92F
binding [2]: no binding (tested: 200 nM)

B8: BOR-C-58 (Fab, V domains shown)
VH: EVQLVESGGGLVQPGGSLRLSCAASGFNVSSYSIHWVRQAPGKGLEWVASISPYYGYTSYADSVKGRFTISADTSKNTAYLQMNSLRAEDTAVYYCARHYYYGFSWFSSGYAMDYWGQGTLVTVSS
VL: B4 VL with S91G, Y92S, W93S, W94S
binding [1]: no binding (tested: 200 nM)

More lines, now with the values ahead:

binding [2]: no binding (tested: 200 nM)
B2: BOR-N-51 (Fab, V domains shown)
VH: EVQLVESGGGLVQPGGSLRLSCAASGFNVYSYSIHWVRQAPGKGLEWVASIYSSYSYTSYADSVKGRFTISADTSKNTAYLQMNSLRAEDTAVYYCARKYHFKPTYWGAMDYWGQGTLVTVSS
VL: B1 VL with D91S, Y92S, S93L, W94Y, S95Y, I97L

binding [2]: no binding (tested: 200 nM)
B5: BOR-N-65 (Fab, V domains shown)
VH: EVQLVESGGGLVQPGGSLRLSCAASGFNFSSSSIHWVRQAPGKGLEWVASISSSSGSTSYADSVKGRFTISADTSKNTAYLQMNSLRAEDTAVYYCARESSQTKKYWYWVVQWYTAMDYWGQGTLVTVSS
VL: B4 VL with S91Y, Y92S, W93Q, P95L

binding [1]: no binding (tested: 200 nM)
B6: BOR-C-64 (Fab, V domains shown)
VH: EVQLVESGGGLVQPGGSLRLSCAASGFNVYYSSIHWVRQAPGKGLEWVASISSYYGSTYYADSVKGRFTISADTSKNTAYLQMNSLRAEDTAVYYCARWKWVAMDYWGQGTLVTVSS
VL: B4 VL with S91D, Y92L, W93F, W94M
